Measurements published in patent US9655822B2, “Hydrated lamellar phases or liposomes which contain a fatty monoamine or a cationic polymer which promotes intracellular penetration, and a cosmetic or pharmaceutical composition containing same, as well as a method of screening such a substance” (BASF Beauty Care Solutions France S.A.S., priority 2004, dated 2017).
At least one structure is not confirmed: it was looked up by name or label, or the drawing left a doubt.

Test system: normal human fibroblasts
Test: Visualisation of the fluorescent tracer by epifluorescence microscopy
Assay type: cell-based
Conditions: 1% of molecule (25 kDa PEI: 50 μM); + / − not defined by a legend

Row | Structure (SMILES) | Visualisation
1 | C[N+](C)(CCO)CCCNC(=O)[C@H](O)[C@@H](O)[C@H](O)[C@H](O)CO.[Cl-] [Quaternium 22] | −
2 | CCCCN [n-Butylamine C4, n-Butylamine] | −
